Values from PubChem BioAssay AID1259308 (NCATS, 2017).
The whole screen tested about 59,000 reagents; below is a random part of them. About 1,510 of them (2.6%) were called active. 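Calls use total luciferase alone and ignore viability, so some active siRNAs may act by altering cell number.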 Unmarked entries are inactive. The numbers tell different reagents against one gene apart.

Purpose: 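Candidate targets for better recombinant protein yield in mammalian cells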 (primary screen)
Cells: human HEK293 embryonic kidney cells stably expressing firefly luciferase (HEK-CMV-Luc2-Hygro)
Knock-down reagent: single siRNA against human genes, 0.8 pmol siRNA per well
Timing: 72 h
Measured: 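Reporter luminescence and viable-cell signal on separate replicate plates, given as percent of non-targeting control and median/MAD z-scores, plus per-cell luciferase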
Reading the numbers: total luciferase, z-score and total luciferase, % of control: higher = more reporter protein produced; luciferase per cell, z-score: higher = more reporter output per viable cell; viable cells, % of control: higher = more viable cells
Rule for the call: 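An siRNA counts as active if its total luciferase robust z-score exceeds 3; genes with two or more such siRNAs out of three were retested with fresh siRNAs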
Calls: active = raised luciferase; inactive = no rise

target | reagent no. | total luciferase, z-score | total luciferase, % of control | luciferase per cell, z-score | viable cells, % of control
FOXD3 | 1 | 1.3 | 108 | 0.56 | 104
FOXD3 | 2 | 0.137 | 84.6 | -0.364 | 104
FOXD3 | 3 | 1.62 | 114 | 3.14 | 55.8
TCL6 | 1 | 0.0894 | 83.7 | 0.874 | 74.3
TCL6 | 2 | 0.469 | 91.2 | 0.43 | 91
TCL6 | 3 | 0.75 | 96.8 | 0.806 | 87.5
MRE11 | 1 | 0.366 | 89.2 | -0.0893 | 102
MRE11 | 2 | -0.781 | 66.4 | -1.36 | 106
MRE11 | 3 | -0.656 | 68.8 | -0.611 | 90.4
SLC4A5 | 1 | 0.605 | 93.9 | 0.88 | 83.2
SLC4A5 | 2 | 1.15 | 105 | 1.37 | 81.6
SLC4A5 | 3 | 0.704 | 95.9 | 0.169 | 103
CEP170B | 1 | -0.258 | 76.8 | -0.795 | 106
CEP170B | 2 | -0.957 | 62.9 | 0.256 | 65.7
CEP170B | 3 | -0.277 | 76.4 | -0.781 | 105

Records above whose gene name starts with T or t:
target | reagent no. | total luciferase, z-score | total luciferase, % of control | luciferase per cell, z-score | viable cells, % of control
TCL6 | 1 | 0.0894 | 83.7 | 0.874 | 74.3
TCL6 | 2 | 0.469 | 91.2 | 0.43 | 91
TCL6 | 3 | 0.75 | 96.8 | 0.806 | 87.5

Further records follow:
target | reagent no. | total luciferase, z-score | total luciferase, % of control | luciferase per cell, z-score | viable cells, % of control
PHF13 | 1 | 1.8 | 118 | 1.95 | 78.7
PHF13 | 2 | -0.534 | 71.3 | -0.541 | 91.8
PHF13 | 3 | 0.254 | 86.9 | 0.379 | 87.9
C1orf115 | 1 | -0.556 | 70.8 | -0.751 | 96.4
C1orf115 | 2 | -0.706 | 67.8 | -0.993 | 98.5
C1orf115 | 3 | 2.65 | 135 | 2.61 | 75.6
TMEM198B | 1 | 1.08 | 103 | 0.59 | 98.9
TMEM198B | 2 | -0.0728 | 80.4 | -0.477 | 102
TMEM198B | 3 | -2.56 | 30.9 | -4.05 | 100
CNOT8 | 1 | 0.925 | 100 | 0.312 | 103
CNOT8 | 2 | 1.55 | 113 | 1.02 | 96.4
CNOT8 | 3 | 1.32 | 108 | 0.999 | 92.9
CCL5 | 1 | -0.728 | 67.4 | -0.778 | 92.4
CCL5 | 2 | 0.223 | 86.3 | 0.129 | 93.2
CCL5 | 3 | -2.5 | 32.1 | -2.58 | 70.8
PTPA | 1 | 7.12 (active) | 223 | 5.4 | 60.3
PTPA | 2 | 0.315 | 88.2 | -0.105 | 101
PTPA | 3 | 1.61 | 114 | 0.127 | 123
SPATS2L | 1 | -1.28 | 56.4 | -2.02 | 107
SPATS2L | 2 | 3.33 (active) | 148 | 2.56 | 84.3
SPATS2L | 3 | -0.753 | 66.9 | -1.09 | 99.7
OR1M1 | 1 | -0.741 | 67.1 | -0.421 | 83.8
OR1M1 | 2 | -0.967 | 62.7 | -0.945 | 89.8
OR1M1 | 3 | -0.00422 | 81.8 | 0.0871 | 89.3
